Reference: PubChem BioAssay AID504808 (Drosophila RNAi Screening Center, 2011)
The deposit covers about 21,000 reagents; below is a random part of those that have a named target and a result. In the full data, 18 (0.084%) got an active call. 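Raw counts without plate normalisation, one of two replicates; the ratio scores behind the calls were not deposited.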 Entries without a mark were called inactive. Not stated in the record: the amount of reagent, the time to read-out.

Aim: 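Chromatin factors that keep E2F targets switched off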 (primary screen)
System: Drosophila S2 cells
Knock-down reagent: long dsRNA against Drosophila genes
Read-out: 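Firefly luciferase driven by E2F sites, normalised to Renilla luciferase on the same minimal promoter, measured by plate reader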
Direction: E2F firefly: higher = more E2F reporter activity; Renilla normaliser: higher = more normaliser reporter signal
Rule for the call: 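a knock-down counted as active when the firefly/Renilla E2F signal rose above 50%, a threshold chosen arbitrarily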

After knock-down of CG12883 (GeneID 43326) [DRSC14570], the record shows E2F firefly, rep 1 = 1.25e5; Renilla normaliser, rep 1 = 5868.
Silencing of Cdc45 (GeneID 31052) [DRSC17747] gave: E2F firefly, rep 1 = 2303; Renilla normaliser, rep 1 = 796.
Cdc45 (GeneID 31052) [DRSC18164] showed E2F firefly, rep 1 = 47574; Renilla normaliser, rep 1 = 3146.
For ND-13B (GeneID 39214) [DRSC10643], the values are E2F firefly, rep 1 = 1.27e5; Renilla normaliser, rep 1 = 7482.
Against Pi3K21B (GeneID 33203) [DRSC00771], the entry reads E2F firefly, rep 1 = 88342; Renilla normaliser, rep 1 = 3952.
After knock-down of Prosalpha2 (GeneID 41531) [DRSC16798], the screen gave E2F firefly, rep 1 = 83135; Renilla normaliser, rep 1 = 6899.
CNBP (GeneID 37646) [DRSC04116] gave E2F firefly, rep 1 = 1.08e5; Renilla normaliser, rep 1 = 4972.
CNBP (GeneID 37646) [DRSC04419] showed E2F firefly, rep 1 = 75387; Renilla normaliser, rep 1 = 3333.
For CG5565 (GeneID 33323) [DRSC00690], the entry reads E2F firefly, rep 1 = 1.68e5; Renilla normaliser, rep 1 = 5677.
Reg-5 (GeneID 37968) [DRSC04647] gave E2F firefly, rep 1 = 93448; Renilla normaliser, rep 1 = 3663.
Against Mlf (GeneID 36750) [DRSC07472], the values are E2F firefly, rep 1 = 1.24e5; Renilla normaliser, rep 1 = 5173.
Depletion of Gr64c (GeneID 117479) [DRSC08445] resulted in: E2F firefly, rep 1 = 1.12e5; Renilla normaliser, rep 1 = 4141.
CG5194 (GeneID 39037) [DRSC10492] scored E2F firefly, rep 1 = 74840; Renilla normaliser, rep 1 = 3126.
Depletion of Nup98-96 (GeneID 42816) [DRSC14209] resulted in: E2F firefly, rep 1 = 58996; Renilla normaliser, rep 1 = 2883.
Depletion of Nup98-96 (GeneID 42816) [DRSC14210] resulted in: E2F firefly, rep 1 = 61538; Renilla normaliser, rep 1 = 4840.
For CG4324 (GeneID 37830) [DRSC04462], the entry reads E2F firefly, rep 1 = 1.18e5; Renilla normaliser, rep 1 = 4263.
Knock-down of CG13720 (GeneID 38557) [DRSC08329] resulted in: E2F firefly, rep 1 = 1.01e5; Renilla normaliser, rep 1 = 4007.
Against Ir94h (GeneID 42769) [DRSC15232] the deposit lists E2F firefly, rep 1 = 88922; Renilla normaliser, rep 1 = 5000.
Against Epg5 (GeneID 42256) [DRSC14778], the values are E2F firefly, rep 1 = 1.42e5; Renilla normaliser, rep 1 = 7328.
Silencing of AstC (GeneID 34537) [DRSC02403] resulted in: E2F firefly, rep 1 = 1.57e5; Renilla normaliser, rep 1 = 5351.
Against HPS1 (GeneID 36656) [DRSC06195], the values are E2F firefly, rep 1 = 2944; Renilla normaliser, rep 1 = 188.
Against insb (GeneID 36967) [DRSC06995] the deposit lists E2F firefly, rep 1 = 1.28e5; Renilla normaliser, rep 1 = 4444.
mRpL19 (GeneID 41028) [DRSC16367] scored E2F firefly, rep 1 = 1.34e5; Renilla normaliser, rep 1 = 6281.
With knock-down of CG8888 (GeneID 36293) [DRSC07294] the results were E2F firefly, rep 1 = 3153; Renilla normaliser, rep 1 = 180.
For CG8888 (GeneID 36293) [DRSC07295] the deposit lists E2F firefly, rep 1 = 1.03e5; Renilla normaliser, rep 1 = 3972.
CG31205 (GeneID 318626) [DRSC13438] scored E2F firefly, rep 1 = 78222; Renilla normaliser, rep 1 = 2721.
After knock-down of CG31229 (GeneID 318636) [DRSC13309], the screen gave E2F firefly, rep 1 = 83571; Renilla normaliser, rep 1 = 2638.
CG7953 (GeneID 34801) [DRSC01902] showed E2F firefly, rep 1 = 80172; Renilla normaliser, rep 1 = 3458.
Against CG14647 (GeneID 40558) [DRSC12233], the entry reads E2F firefly, rep 1 = 75526; Renilla normaliser, rep 1 = 3513.
After knock-down of CG3735 (GeneID 37803) [DRSC04411], the screen gave E2F firefly, rep 1 = 87128; Renilla normaliser, rep 1 = 3690.
Silencing of CG8860 (GeneID 36310) [DRSC07291] resulted in: E2F firefly, rep 1 = 1.04e5; Renilla normaliser, rep 1 = 4757.
Knock-down of CG33777 (GeneID 3772311) [DRSC08107] resulted in: E2F firefly, rep 1 = 1.27e5; Renilla normaliser, rep 1 = 4044.
After knock-down of dbf (GeneID 34462) [DRSC02570], the record shows E2F firefly, rep 1 = 1.43e5; Renilla normaliser, rep 1 = 5234.
Depletion of CG31097 (GeneID 43058) [DRSC14666] came out at: E2F firefly, rep 1 = 1.14e5; Renilla normaliser, rep 1 = 6249.
After knock-down of Las (GeneID 40259) [DRSC11772], the record shows E2F firefly, rep 1 = 69744; Renilla normaliser, rep 1 = 4145.
Depletion of CG32579 (GeneID 318096) [DRSC19872] gave: E2F firefly, rep 1 = 1.60e5; Renilla normaliser, rep 1 = 6623.
